Test results reported in PMC2841637.
These are yes or no findings as the source states them, for the method shown. In cells and extracts the contact can be indirect. Where a sequence is shown, tags or fusion partners need not be part of it.

The chains behind the UniProt entries cited, without tags or fusion partners. Residues count along the entry.
UniProt P35739, residues 33-799: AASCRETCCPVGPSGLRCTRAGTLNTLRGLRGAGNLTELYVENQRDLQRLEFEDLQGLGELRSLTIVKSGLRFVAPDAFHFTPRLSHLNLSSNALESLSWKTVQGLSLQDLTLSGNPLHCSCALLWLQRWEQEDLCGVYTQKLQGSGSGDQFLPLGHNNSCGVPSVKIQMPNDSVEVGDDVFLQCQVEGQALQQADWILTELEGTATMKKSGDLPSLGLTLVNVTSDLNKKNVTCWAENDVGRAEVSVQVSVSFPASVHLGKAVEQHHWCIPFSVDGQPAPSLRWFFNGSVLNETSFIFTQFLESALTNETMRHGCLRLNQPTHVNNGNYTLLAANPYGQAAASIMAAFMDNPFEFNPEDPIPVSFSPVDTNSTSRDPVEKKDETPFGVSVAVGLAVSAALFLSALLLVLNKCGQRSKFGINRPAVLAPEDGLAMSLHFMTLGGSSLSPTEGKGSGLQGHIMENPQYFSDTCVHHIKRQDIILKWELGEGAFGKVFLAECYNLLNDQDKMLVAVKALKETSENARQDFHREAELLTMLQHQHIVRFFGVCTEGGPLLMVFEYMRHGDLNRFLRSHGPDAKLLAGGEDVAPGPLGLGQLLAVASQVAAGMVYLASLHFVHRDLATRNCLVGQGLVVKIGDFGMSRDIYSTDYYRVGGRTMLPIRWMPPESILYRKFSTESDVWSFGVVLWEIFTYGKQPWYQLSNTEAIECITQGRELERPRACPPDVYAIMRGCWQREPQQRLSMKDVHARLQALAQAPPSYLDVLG

Molecular target: T1, Flag-tagged Tiam1 (C1199), aa 393-1590 (UniProt Q60610)
T1 sequence: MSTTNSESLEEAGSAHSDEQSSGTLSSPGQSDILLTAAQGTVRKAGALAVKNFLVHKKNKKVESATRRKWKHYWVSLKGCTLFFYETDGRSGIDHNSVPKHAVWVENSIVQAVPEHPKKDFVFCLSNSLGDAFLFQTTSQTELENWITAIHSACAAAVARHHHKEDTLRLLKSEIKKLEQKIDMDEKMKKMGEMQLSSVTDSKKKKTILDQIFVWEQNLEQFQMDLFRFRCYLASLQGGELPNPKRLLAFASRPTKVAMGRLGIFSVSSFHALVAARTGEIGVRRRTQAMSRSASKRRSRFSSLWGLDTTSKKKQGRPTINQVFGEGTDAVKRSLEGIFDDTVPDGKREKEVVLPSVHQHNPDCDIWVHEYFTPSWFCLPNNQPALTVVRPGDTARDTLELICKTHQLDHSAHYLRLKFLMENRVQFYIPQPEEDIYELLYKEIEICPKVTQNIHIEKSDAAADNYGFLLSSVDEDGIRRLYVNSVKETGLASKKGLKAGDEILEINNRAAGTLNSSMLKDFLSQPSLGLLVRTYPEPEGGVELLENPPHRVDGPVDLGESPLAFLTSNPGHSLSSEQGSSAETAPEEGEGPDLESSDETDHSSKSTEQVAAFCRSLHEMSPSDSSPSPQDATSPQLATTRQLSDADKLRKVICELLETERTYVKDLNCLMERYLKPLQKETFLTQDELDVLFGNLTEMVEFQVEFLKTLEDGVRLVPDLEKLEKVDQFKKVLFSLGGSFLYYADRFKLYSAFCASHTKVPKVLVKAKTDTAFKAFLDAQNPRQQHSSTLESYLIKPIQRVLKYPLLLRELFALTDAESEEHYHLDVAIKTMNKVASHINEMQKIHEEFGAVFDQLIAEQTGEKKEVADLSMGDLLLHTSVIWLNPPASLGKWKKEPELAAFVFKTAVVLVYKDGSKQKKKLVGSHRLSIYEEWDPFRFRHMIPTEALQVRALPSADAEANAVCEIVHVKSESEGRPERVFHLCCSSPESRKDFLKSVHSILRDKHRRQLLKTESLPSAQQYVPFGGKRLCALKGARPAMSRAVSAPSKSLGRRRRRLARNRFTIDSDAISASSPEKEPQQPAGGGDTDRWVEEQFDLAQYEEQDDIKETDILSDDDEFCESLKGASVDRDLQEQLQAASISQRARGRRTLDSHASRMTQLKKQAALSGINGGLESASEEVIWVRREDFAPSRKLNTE
Assay: co-IP; COS cells transfected with Flag-tagged Tiam1 (C1199) and HA-tagged TrkA; IP with anti-Flag, immunoblot with anti-HA; lysis in 0.5% Triton X-100, 1% beta-octylglucoside at 4°C

hemagglutinin (HA)-tagged TrkA (from UniProt P35739 33-799) (receptor)
binding: no binding
